Measured values from publication doi:10.1101/2023.03.13.532366.
Results are given in words; binding and its absence hold for the method and conditions named. Some results given as binding are weak or reduced against the parent protein; the word gives no strength. Where a sequence is shown, tags or fusion partners need not be part of it.

Biological target: T1, mIL-12Rβ1_(D1-D2)-His6 (crystallised with mIL-12B_(C197S)) (mouse) (UniProt Q60837)
T1 sequence: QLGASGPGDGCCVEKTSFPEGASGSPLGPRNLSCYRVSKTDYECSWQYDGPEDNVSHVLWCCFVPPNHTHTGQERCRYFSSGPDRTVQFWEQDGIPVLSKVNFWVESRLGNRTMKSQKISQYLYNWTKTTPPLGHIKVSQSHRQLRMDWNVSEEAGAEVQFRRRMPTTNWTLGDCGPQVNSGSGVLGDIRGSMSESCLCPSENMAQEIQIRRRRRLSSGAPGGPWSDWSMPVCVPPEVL
Assay: crystal structure

B1: mIL-12B_(C197S) (mIL-12b_(C197S)-His6) (protein, UniProt P43432 23-335)
chain: MWELEKDVYVVEVDWTPDAPGETVNLTCDTPEEDDITWTSDQRHGVIGSGKTLTITVKEFLDAGQYTCHKGGETLSHSHLLLHKKENGIWSTEILKNFKNKTFLKCEAPNYSGRFTCSWLVQRNMDLKFNIKSSSSSPDSRAVTCGMASLSAEKVTLDQRDYEKYSVSCQEDVTSPTAEETLPIELALEARQQNKYENYSTSFFIRDIIKPDPPKNLQMKPLKNSQVEVSWEYPDSWSTPHSYFSLKFFVRIQRKKEKMKETEEGCNQKGAFLVEKTSTEVQCKGGNVCVQAQDRYYNSSCSKWACVPCRVRS
**Q.** How did the binding turn out when B1 was run?
**A.** binds
